According to patent US20150191735:
Residue numbers refer to the chain shown, from its start. Where a protein sequence is shown, tags need not be part of it.

Assays:
Assay in all cases: activity in cells
[1] = test system: T1, ColE2-P9 Rep protein wild type (Plasmid ColE2-P9 (E. coli)); conditions: NTC9385C-Luc, NTC641711, LB 37 C, G194D mutant gives 0.9, only the site is given
T1 sequence: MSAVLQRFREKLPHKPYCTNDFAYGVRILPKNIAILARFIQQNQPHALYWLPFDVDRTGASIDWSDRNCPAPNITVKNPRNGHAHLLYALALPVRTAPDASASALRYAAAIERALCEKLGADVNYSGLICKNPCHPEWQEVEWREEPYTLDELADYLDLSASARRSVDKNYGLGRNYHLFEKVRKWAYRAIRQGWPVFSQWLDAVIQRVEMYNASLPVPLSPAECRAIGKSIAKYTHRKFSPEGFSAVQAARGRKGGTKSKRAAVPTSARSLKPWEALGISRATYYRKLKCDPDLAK

[2] = biological target: T2, R6K Rep protein pi P42L-P113S (Plasmid R6K (E. coli)) (UniProt P03067); conditions: NTC9685R-EGFP, NTC640722, RF305, 37 C
T2 sequence: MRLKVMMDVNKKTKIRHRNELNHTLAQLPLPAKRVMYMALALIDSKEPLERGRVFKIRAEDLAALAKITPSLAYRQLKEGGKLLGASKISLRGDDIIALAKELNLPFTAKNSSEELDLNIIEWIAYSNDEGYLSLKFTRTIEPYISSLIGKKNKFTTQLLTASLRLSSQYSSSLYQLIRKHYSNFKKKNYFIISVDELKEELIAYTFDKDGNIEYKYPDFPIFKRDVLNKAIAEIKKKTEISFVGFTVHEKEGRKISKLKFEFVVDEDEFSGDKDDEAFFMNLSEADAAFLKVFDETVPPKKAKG

[3] = biological target: T3, R6K Rep protein pi P42L-P106L-F107S (Plasmid R6K (E. coli)) (UniProt P03067); conditions: NTC9685R-EGFP, NTC711231, RF359, 42 C induction
T3 sequence: T2 sequence with P106L, F107S, S113P

Sequence	activity on this sequence (mg plasmid/L/OD600) [1]	activity on this sequence (mg plasmid/L/OD600) [2]	activity on this sequence (mg plasmid/L/OD600) [3]
CAAAAGGGCGCTGTTATCTGATAAGGCTTATCTGGTCTCATTTTG (double strand) [ColE2 origin (+7)]	0.4	–	–
GGCTTGTTGTCCACAACCGTTAAACCTTAAAAGCTTTAAAAGCCTTATATATTCTTTTTTTTCTTATAAAACTTAAAACCTTAGAGGCTATTTAAGTTGCTGATTTATATTAATTTTATTGTTCAAACATGAGAGCTTAGTACGTGAAACATGAGAGCTTAGTACGTTAGCCATGAGAGCTTAGTACGTTAGCCATGAGGGTTTAGTTCGTTAAACATGAGAGCTTAGTACGTTAAACATGAGAGCTTAGTACGTACTATCAACAGGTTGAACTGCTGATC (double strand) [R6K gamma origin (minimal)]	–	3.6	8.5
